Data as given in article doi:10.1101/2023.11.13.566796.
Results are given in words; binding and its absence hold for the method and conditions named. Binding seen in cells or lysates may run through a third protein. Some entries that bind do so weakly or less than the wild type. Sequences can lack the tags named with a protein.

By UniProt entry, the sequences of proteins in these tests, tags left out.
UniProt Q00944: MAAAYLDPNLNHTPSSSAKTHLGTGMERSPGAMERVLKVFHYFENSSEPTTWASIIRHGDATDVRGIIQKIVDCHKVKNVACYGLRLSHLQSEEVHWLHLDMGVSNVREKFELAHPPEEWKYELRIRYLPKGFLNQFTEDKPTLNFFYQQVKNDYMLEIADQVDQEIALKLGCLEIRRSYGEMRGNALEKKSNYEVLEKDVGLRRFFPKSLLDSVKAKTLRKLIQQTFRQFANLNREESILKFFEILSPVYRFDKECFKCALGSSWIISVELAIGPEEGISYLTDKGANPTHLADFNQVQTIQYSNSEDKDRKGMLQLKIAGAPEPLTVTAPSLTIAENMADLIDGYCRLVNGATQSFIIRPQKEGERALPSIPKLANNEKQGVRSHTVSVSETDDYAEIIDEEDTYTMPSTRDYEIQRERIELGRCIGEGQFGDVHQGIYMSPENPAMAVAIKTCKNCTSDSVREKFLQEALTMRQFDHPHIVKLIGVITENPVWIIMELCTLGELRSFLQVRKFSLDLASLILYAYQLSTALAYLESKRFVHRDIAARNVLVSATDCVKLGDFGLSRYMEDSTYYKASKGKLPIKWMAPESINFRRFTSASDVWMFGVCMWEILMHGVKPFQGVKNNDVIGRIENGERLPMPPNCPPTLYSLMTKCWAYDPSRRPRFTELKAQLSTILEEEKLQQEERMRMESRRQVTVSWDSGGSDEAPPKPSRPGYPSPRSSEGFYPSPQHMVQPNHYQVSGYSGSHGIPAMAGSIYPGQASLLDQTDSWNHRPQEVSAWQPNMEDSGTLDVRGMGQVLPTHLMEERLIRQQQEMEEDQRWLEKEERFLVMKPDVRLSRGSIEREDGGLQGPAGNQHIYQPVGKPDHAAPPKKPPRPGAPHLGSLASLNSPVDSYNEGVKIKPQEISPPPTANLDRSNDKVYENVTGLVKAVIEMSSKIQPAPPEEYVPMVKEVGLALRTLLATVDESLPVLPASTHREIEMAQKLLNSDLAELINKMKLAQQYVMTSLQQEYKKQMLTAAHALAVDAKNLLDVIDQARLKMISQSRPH
UniProt P49024: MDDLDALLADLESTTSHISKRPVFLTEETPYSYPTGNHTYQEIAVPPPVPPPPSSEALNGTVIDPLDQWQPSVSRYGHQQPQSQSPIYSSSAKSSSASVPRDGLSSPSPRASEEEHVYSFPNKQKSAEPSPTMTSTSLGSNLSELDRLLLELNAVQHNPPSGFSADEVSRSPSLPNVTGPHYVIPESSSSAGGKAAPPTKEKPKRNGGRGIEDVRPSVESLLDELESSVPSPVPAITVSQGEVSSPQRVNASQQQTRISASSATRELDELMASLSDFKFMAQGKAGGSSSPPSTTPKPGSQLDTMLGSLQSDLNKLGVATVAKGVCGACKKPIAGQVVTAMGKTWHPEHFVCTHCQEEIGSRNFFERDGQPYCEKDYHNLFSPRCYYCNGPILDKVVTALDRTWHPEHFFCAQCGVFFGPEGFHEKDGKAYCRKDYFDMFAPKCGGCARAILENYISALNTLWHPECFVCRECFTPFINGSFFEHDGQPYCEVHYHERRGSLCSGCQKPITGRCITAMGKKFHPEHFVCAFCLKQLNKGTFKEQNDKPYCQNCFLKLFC

Assays:
Assay in all cases: co-IP
GFP-FAK (Gallus gallus) = GFP-FAK (Gallus gallus) (UniProt Q00944)
GFP-paxillin = GFP-paxillin (UniProt P49024)
[1] = target: T1, HA-tagged full-length BNIP-2 (human) (UniProt Q12982)
T1 sequence: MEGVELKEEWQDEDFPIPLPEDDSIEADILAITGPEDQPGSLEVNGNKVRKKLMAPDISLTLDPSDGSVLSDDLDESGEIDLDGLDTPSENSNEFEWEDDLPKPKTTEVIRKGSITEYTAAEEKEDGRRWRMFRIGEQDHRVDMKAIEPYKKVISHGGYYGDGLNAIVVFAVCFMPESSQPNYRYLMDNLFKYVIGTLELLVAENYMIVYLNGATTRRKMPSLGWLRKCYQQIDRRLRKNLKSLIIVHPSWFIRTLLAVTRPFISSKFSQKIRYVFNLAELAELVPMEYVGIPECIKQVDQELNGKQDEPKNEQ

B1: FLAG-BNIP-2 (protein, UniProt Q12982 1-314)
chain: T1 sequence
- binding (GFP-FAK (Gallus gallus)): binds
- binding (GFP-paxillin): binds

B2: GFP-BNIP-2-cBCH (domain or fragment, UniProt Q12982 126-314)
chain: DGRRWRMFRIGEQDHRVDMKAIEPYKKVISHGGYYGDGLNAIVVFAVCFMPESSQPNYRYLMDNLFKYVIGTLELLVAENYMIVYLNGATTRRKMPSLGWLRKCYQQIDRRLRKNLKSLIIVHPSWFIRTLLAVTRPFISSKFSQKIRYVFNLAELAELVPMEYVGIPECIKQVDQELNGKQDEPKNEQ
- binding [1]: binds
